Assay results taken from the supplement of paper PMC10032668.
The other results are listed elsewhere or left out. Only hits are listed; about a third recur on repeated control peptides.

Protein sequences, listed by entry. Tags and fused reporters are not part of them.
AHSA1, O95433, UniProt O95433, whole entry: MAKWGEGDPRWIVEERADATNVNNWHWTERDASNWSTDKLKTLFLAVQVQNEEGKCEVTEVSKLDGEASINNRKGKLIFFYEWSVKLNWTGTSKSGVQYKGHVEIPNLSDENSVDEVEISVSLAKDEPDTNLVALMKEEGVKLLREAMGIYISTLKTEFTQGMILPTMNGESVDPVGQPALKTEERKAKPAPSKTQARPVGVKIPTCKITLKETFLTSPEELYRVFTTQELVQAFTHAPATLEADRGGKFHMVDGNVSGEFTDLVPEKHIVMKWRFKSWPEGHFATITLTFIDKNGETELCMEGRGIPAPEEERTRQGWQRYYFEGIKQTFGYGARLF
ATXN2, Q99700, UniProt Q99700, whole entry: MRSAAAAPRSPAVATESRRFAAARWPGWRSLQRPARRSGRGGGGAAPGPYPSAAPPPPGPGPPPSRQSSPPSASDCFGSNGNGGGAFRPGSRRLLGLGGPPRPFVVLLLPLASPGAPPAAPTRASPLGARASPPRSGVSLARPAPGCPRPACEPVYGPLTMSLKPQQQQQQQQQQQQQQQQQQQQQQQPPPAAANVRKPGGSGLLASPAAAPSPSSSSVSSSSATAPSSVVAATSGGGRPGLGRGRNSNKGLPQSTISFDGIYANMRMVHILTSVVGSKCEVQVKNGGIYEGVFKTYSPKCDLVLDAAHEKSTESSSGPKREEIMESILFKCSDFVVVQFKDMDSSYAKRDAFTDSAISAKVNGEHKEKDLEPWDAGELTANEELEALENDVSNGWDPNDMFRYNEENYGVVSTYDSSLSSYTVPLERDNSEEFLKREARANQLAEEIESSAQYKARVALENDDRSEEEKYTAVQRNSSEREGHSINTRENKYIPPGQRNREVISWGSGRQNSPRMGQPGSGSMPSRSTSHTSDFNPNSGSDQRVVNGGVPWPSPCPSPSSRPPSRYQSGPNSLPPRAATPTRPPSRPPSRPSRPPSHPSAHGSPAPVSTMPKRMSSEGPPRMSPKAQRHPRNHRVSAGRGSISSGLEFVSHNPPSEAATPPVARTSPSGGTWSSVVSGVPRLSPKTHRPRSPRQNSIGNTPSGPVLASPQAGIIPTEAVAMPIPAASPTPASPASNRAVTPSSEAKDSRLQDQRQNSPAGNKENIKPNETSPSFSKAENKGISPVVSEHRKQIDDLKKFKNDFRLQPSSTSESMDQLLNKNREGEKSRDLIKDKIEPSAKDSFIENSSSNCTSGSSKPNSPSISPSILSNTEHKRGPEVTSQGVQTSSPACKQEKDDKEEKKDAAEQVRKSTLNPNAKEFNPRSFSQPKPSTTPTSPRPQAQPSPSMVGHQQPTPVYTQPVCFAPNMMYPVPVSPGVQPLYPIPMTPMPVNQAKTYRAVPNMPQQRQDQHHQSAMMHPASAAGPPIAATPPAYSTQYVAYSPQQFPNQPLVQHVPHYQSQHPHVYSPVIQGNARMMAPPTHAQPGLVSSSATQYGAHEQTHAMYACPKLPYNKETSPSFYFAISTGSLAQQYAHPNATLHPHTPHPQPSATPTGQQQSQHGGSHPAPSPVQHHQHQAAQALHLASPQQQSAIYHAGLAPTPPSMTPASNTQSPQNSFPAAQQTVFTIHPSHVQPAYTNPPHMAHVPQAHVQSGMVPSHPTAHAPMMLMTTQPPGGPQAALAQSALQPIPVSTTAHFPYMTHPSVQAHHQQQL
CCAR2, Q8N163, UniProt Q8N163, whole entry: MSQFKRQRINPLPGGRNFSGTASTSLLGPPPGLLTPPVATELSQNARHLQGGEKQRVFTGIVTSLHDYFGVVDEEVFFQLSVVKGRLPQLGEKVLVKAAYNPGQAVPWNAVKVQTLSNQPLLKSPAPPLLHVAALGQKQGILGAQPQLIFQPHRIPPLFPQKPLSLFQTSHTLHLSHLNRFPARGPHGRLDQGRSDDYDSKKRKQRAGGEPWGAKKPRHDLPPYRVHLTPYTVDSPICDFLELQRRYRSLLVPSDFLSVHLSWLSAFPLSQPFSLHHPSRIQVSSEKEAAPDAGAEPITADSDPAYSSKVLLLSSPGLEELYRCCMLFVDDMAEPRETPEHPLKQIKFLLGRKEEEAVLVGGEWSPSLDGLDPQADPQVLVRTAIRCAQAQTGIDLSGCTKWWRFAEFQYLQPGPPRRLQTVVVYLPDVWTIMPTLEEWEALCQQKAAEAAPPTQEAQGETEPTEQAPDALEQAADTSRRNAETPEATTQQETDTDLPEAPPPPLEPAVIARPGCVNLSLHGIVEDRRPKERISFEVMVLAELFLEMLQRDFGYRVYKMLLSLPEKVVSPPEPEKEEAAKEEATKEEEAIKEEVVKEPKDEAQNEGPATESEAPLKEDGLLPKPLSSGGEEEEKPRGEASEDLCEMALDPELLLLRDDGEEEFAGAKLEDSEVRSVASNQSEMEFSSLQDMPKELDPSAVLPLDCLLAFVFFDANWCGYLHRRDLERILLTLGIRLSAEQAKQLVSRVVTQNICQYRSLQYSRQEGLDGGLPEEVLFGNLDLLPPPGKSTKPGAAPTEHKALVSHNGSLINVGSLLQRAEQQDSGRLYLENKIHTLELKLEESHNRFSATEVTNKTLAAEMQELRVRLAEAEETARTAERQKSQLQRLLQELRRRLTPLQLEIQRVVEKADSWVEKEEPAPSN
CHMP2B, Q9UQN3, UniProt Q9UQN3, whole entry: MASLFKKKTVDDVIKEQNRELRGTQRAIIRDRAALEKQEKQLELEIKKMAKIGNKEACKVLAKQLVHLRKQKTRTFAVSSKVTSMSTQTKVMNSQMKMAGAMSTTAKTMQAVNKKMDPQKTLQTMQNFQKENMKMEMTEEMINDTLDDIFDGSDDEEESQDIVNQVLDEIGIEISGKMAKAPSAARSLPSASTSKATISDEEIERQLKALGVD
CKS1B, P61024, UniProt P61024, whole entry: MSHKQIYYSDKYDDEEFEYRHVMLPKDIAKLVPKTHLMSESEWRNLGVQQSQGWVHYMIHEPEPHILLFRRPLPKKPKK
CKS2, P33552, UniProt P33552, whole entry: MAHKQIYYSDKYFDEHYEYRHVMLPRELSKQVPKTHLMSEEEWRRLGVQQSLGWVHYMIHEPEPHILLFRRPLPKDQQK
CXXC1, Q9P0U4, UniProt Q9P0U4, whole entry: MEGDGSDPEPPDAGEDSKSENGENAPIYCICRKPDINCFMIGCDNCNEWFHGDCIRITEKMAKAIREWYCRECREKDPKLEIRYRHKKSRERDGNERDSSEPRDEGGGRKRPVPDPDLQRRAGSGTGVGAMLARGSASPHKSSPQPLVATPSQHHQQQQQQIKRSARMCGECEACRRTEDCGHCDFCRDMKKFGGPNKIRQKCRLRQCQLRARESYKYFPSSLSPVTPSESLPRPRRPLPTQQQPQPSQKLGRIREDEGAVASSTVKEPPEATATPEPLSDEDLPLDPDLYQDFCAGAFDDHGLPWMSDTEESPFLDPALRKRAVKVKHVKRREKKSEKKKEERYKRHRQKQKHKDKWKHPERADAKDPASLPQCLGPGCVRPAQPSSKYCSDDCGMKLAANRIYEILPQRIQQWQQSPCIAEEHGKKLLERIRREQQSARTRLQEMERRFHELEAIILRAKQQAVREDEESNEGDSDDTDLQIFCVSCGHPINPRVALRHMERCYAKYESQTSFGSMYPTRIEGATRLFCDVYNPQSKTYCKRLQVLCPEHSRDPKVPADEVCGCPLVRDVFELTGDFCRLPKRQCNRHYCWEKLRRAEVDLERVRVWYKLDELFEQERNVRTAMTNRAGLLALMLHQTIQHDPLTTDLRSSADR
CUL4A, Q13619, UniProt Q13619, whole entry: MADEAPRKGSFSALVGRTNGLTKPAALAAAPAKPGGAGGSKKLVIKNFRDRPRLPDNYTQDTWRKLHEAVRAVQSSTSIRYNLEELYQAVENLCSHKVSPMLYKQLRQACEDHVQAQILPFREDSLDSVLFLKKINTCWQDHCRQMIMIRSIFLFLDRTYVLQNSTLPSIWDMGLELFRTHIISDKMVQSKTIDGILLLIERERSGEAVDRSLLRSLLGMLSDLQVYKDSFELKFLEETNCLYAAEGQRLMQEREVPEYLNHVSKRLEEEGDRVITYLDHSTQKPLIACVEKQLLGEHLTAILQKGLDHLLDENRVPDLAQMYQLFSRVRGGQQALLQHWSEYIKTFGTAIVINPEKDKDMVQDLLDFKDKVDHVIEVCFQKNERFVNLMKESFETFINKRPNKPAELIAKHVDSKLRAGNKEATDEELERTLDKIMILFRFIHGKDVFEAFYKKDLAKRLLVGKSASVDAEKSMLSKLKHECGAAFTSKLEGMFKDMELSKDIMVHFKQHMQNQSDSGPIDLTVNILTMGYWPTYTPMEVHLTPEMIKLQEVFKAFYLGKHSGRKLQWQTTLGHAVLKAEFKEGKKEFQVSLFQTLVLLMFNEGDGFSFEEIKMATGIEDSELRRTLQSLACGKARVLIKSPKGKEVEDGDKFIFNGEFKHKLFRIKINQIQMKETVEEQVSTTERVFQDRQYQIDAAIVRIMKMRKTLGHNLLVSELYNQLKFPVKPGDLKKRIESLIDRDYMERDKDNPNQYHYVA
NELFE, P18615, UniProt P18615, whole entry: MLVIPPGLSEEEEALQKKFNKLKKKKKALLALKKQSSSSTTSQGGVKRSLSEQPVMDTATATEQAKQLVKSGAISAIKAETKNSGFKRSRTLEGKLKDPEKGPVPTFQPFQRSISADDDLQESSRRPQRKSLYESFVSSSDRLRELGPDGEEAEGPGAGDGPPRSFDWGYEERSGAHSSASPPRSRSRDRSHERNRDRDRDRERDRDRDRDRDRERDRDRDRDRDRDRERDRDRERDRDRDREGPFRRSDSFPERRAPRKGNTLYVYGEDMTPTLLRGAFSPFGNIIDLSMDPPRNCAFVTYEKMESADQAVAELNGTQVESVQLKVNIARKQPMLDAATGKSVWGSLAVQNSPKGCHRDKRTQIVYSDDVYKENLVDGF

Assays:
Experiment in all cases: PRISMA enrichment of interactor (LFQ) in peptide spot vs all other peptide spots (log2 fold change); higher = stronger / more specific binding of the interactor to the peptide
ADNP, Q9H2P0 = target: ADNP, Q9H2P0
Experimental: (§1)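 PRISMA: 221 full-length sORF-encoded peptides (3-15 aa), plus SOS1/GLUT1 control peptides, were spot-synthesized on cellulose membranes in triplicate. Membranes were incubated with HEK293T lysate, and bound proteins were identified by LC-MS/MS with LFQ. Enrichment is the log2 fold change versus all other peptide spots; only significant interactors are listed (cutoff c=6, x0=2.8).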

AHNAK, Q09666 = target: AHNAK, Q09666
Experimental: as §1

AHSA1, O95433 = target: AHSA1, O95433
Experimental: as §1

ANKHD1, Q8IWZ3 = target: ANKHD1, Q8IWZ3
Experimental: as §1

ANKRD17, O75179 = target: ANKRD17, O75179
Experimental: as §1

ASH2L = target: ASH2L
Experimental: as §1

ATF7IP, Q6VMQ6 = target: ATF7IP, Q6VMQ6
Experimental: as §1

ATXN2, Q99700 = target: ATXN2, Q99700
Experimental: as §1

ATXN2L, Q8WWM7 = target: ATXN2L, Q8WWM7
Experimental: as §1

BAG6, P46379 = target: BAG6, P46379
Experimental: as §1

BAP1, Q92560 = target: BAP1, Q92560
Experimental: as §1

BCOR, Q6W2J9 = target: BCOR, Q6W2J9
Experimental: as §1

BOLA3, Q53S33 = target: BOLA3, Q53S33
Experimental: as §1

BPTF, Q12830 = target: BPTF, Q12830
Experimental: as §1

C19orf47, Q8N9M1 = target: C19orf47, Q8N9M1
Experimental: as §1

C19orf53, Q9UNZ5 = target: C19orf53, Q9UNZ5
Experimental: as §1

C1orf131, Q8NDD1 = target: C1orf131, Q8NDD1
Experimental: as §1

CCAR1, Q8IX12 = target: CCAR1, Q8IX12
Experimental: as §1

CCAR2, Q8N163 = target: CCAR2, Q8N163
Experimental: as §1

CCDC9, Q9Y3X0 = target: CCDC9, Q9Y3X0
Experimental: as §1

CDC42EP1, Q00587 = target: CDC42EP1, Q00587
Experimental: as §1

CGN, Q9P2M7 = target: CGN, Q9P2M7
Experimental: as §1

CHD4, Q14839 = target: CHD4, Q14839
Experimental: as §1

CHD8, Q9HCK8 = target: CHD8, Q9HCK8
Experimental: as §1

CHMP2B, Q9UQN3 = target: CHMP2B, Q9UQN3
Experimental: as §1

CKAP2, Q8WWK9 = target: CKAP2, Q8WWK9
Experimental: as §1

CKS1B, P61024 = target: CKS1B, P61024
Experimental: as §1

CKS2, P33552 = target: CKS2, P33552
Experimental: as §1

CSRP2, Q16527 = target: CSRP2, Q16527
Experimental: as §1

CXXC1, Q9P0U4 = target: CXXC1, Q9P0U4
Experimental: as §1

ADAMTS19, Q8TE59 = target: ADAMTS19, Q8TE59
Experimental: as §1

MRPL57, Q9BQC6 = target: MRPL57, Q9BQC6
Experimental: as §1

PINX1, Q96BK5 = target: PINX1, Q96BK5
Experimental: as §1

SAPCD2, Q86UD0 = target: SAPCD2, Q86UD0
Experimental: as §1

ADGRA3, Q8IWK6 = target: ADGRA3, Q8IWK6
Experimental: as §1

CC2D1A, Q6P1N0 = target: CC2D1A, Q6P1N0
Experimental: as §1

CUL4A, Q13619 = target: CUL4A, Q13619
Experimental: as §1

GTF3C3, Q9Y5Q9 = target: GTF3C3, Q9Y5Q9
Experimental: as §1

MCM10, Q7L590 = target: MCM10, Q7L590
Experimental: as §1

MICU2, Q8IYU8 = target: MICU2, Q8IYU8
Experimental: as §1

MRPL45, Q9BRJ2 = target: MRPL45, Q9BRJ2
Experimental: as §1

NELFE, P18615 = target: NELFE, P18615
Experimental: as §1

NQO2, P16083 = target: NQO2, P16083
Experimental: as §1

PAF1, Q8N7H5 = target: PAF1, Q8N7H5
Experimental: as §1

PAIP1, Q9H074 = target: PAIP1, Q9H074
Experimental: as §1

RRS1, Q15050 = target: RRS1, Q15050
Experimental: as §1

SCO1, O75880 = target: SCO1, O75880
Experimental: as §1

SEPTIN9, Q9UHD8 = target: SEPTIN9, Q9UHD8
Experimental: as §1

SULT1C2, O00338 = target: SULT1C2, O00338
Experimental: as §1

WIZ, O95785 = target: WIZ, O95785
Experimental: as §1

MAASSEIIIQVFVS [VPS8]
PRISMA enrichment of interactor (log2) (ADNP, Q9H2P0): 4.49 | PRISMA enrichment of interactor (log2) (AHNAK, Q09666): 4.55 | PRISMA enrichment of interactor (log2) (AHSA1, O95433): 5.89 | PRISMA enrichment of interactor (log2) (ANKHD1, Q8IWZ3): 3.99 | PRISMA enrichment of interactor (log2) (ANKRD17, O75179): 4.68 | PRISMA enrichment of interactor (log2) (ASH2L): 6.34 | PRISMA enrichment of interactor (log2) (ATF7IP, Q6VMQ6): 4.78 | PRISMA enrichment of interactor (log2) (ATXN2, Q99700): 6.53 | PRISMA enrichment of interactor (log2) (ATXN2L, Q8WWM7): 7.28 | PRISMA enrichment of interactor (log2) (BAG6, P46379): 4.74 | PRISMA enrichment of interactor (log2) (BAP1, Q92560): 5.15 | PRISMA enrichment of interactor (log2) (BCOR, Q6W2J9): 6.27 | PRISMA enrichment of interactor (log2) (BOLA3, Q53S33): 6.28 | PRISMA enrichment of interactor (log2) (BPTF, Q12830): 7.21 | PRISMA enrichment of interactor (log2) (C19orf47, Q8N9M1): 4.75 | PRISMA enrichment of interactor (log2) (C19orf53, Q9UNZ5): 6.01 | PRISMA enrichment of interactor (log2) (C1orf131, Q8NDD1): 4.03 | PRISMA enrichment of interactor (log2) (CCAR1, Q8IX12): 10.3 | PRISMA enrichment of interactor (log2) (CCAR2, Q8N163): 5.26 | PRISMA enrichment of interactor (log2) (CCDC9, Q9Y3X0): 5.31 | PRISMA enrichment of interactor (log2) (CDC42EP1, Q00587): 4.34 | PRISMA enrichment of interactor (log2) (CGN, Q9P2M7): 6.67 | PRISMA enrichment of interactor (log2) (CHD4, Q14839): 5.36 | PRISMA enrichment of interactor (log2) (CHD8, Q9HCK8): 6.66 | PRISMA enrichment of interactor (log2) (CHMP2B, Q9UQN3): 4.47 | PRISMA enrichment of interactor (log2) (CKAP2, Q8WWK9): 5.14 | PRISMA enrichment of interactor (log2) (CKS1B, P61024): 4.79 | PRISMA enrichment of interactor (log2) (CKS2, P33552): 5.25 | PRISMA enrichment of interactor (log2) (CSRP2, Q16527): 4.7 | PRISMA enrichment of interactor (log2) (CXXC1, Q9P0U4): 5.05

MEARDGC [TMEM39A]
PRISMA enrichment of interactor (log2) (ADAMTS19, Q8TE59): 7.04 | PRISMA enrichment of interactor (log2) (MRPL57, Q9BQC6): 5.52 | PRISMA enrichment of interactor (log2) (PINX1, Q96BK5): 7.25 | PRISMA enrichment of interactor (log2) (SAPCD2, Q86UD0): 6.18

MSSTSRDIPSQERSA [CDH11]
PRISMA enrichment of interactor (log2) (ADGRA3, Q8IWK6): 6.2 | PRISMA enrichment of interactor (log2) (CC2D1A, Q6P1N0): 6.02 | PRISMA enrichment of interactor (log2) (CUL4A, Q13619): 6.26 | PRISMA enrichment of interactor (log2) (GTF3C3, Q9Y5Q9): 6.04 | PRISMA enrichment of interactor (log2) (MCM10, Q7L590): 4.16 | PRISMA enrichment of interactor (log2) (MICU2, Q8IYU8): 4.9 | PRISMA enrichment of interactor (log2) (MRPL45, Q9BRJ2): 5.26 | PRISMA enrichment of interactor (log2) (NELFE, P18615): 4.34 | PRISMA enrichment of interactor (log2) (NQO2, P16083): 4.97 | PRISMA enrichment of interactor (log2) (PAF1, Q8N7H5): 6.13 | PRISMA enrichment of interactor (log2) (PAIP1, Q9H074): 3.84 | PRISMA enrichment of interactor (log2) (RRS1, Q15050): 5.79 | PRISMA enrichment of interactor (log2) (SCO1, O75880): 4.58 | PRISMA enrichment of interactor (log2) (SEPTIN9, Q9UHD8): 5.57 | PRISMA enrichment of interactor (log2) (SULT1C2, O00338): 5.82 | PRISMA enrichment of interactor (log2) (WIZ, O95785): 5.72
